Source: patent publication US20260258004A1, “CRYSTALLINE FORMS OF (6S)-5-[4'-FLUORO-2-(TRIFLUOROMETHYL)BIPHENYL-4-YL]-6-METHYL-3,6- DIHYDRO-2H-l,3,4-OXADIAZIN-2-ONE” (Bayer Aktiengesellschaft, priority 2022, published 2026)
This continues a long series; more values of the same kind are listed elsewhere.

Test: Particle size distribution by laser diffraction (Malvern Panalytical Mastersizer 3000, Fraunhofer)
Assay type: physicochemical
Protocol: The particle size distribution was measured by laser diffraction using the Malvern Panalytical Mastersizer 3000.
The samples are again taken from example 1.6 (probe 1) and example 1.5 (probe 2), the same as used in example 4.
The sample to be analyzed is dispersed in 1 drop of Tween 80 the sample is processed according to ISO13320.
Laser diffraction is an often-used method for determination the particle size of dispersed solid materials. A widened laser beam illuminates a cuvette which contains part of the particles. By diffraction on the particles a characteristic pattern can be mapped on the detector. The resulting diffraction image is the additive overlaying of diffraction images of all particles.
Besides the mentioned detector two additional detectors are mounted in order to detect diffraction light in forward direction (FA1,9), in wide angle (LA1,2) and in back direction (BS1,2). The turbidity of the sample is measured by an extinction sensor. This is necessary to ensure a low particle concentration which is necessary to avoid wrong results by multiple diffraction of light at several particles.
The cuvette used was a wet unit where the suspension is pumped in a closed circuit with a dispersing unit that ensures a separation of single particles by shear forces.
The measurement range of the Malvern 3000 covers a particle size from 1 mm (2 mm) down to 20 nm
The calculation of the particle size distribution from the diffraction patterns was done on basis of theory of Fraunhofer.
This assumption is valid for particle sizes of 10 to 50 μm and above. For smaller particles the light scattering of the particle itself due to optical transparency must be considered which is done in the Mie-theory (not used for our probes). Precondition of the application of the Mie-theory is the knowledge of the refractive and absorption index of the dispersed solids.
Q3 is the cumulative volume distribution, e.g. D50=Q(50%) indicates 50% of the volume part of the sample is smaller than particle size of 50 μm.
The particle size is expressed as an equivalent diameter used in the method recommended by the Malvern Analysis Program and as described in ISO13320.

Cumulative volume distribution Q (particle size D 0.0463 μm, 300 s US): 0%
Cumulative volume distribution Q (particle size D 0.0463 μm, without US): 0%
Cumulative volume distribution Q (particle size D 0.0526 μm, 300 s US): 0%
Cumulative volume distribution Q (particle size D 0.0526 μm, without US): 0%
Cumulative volume distribution Q (particle size D 0.0597 μm, 300 s US): 0%
Cumulative volume distribution Q (particle size D 0.0597 μm, without US): 0%
Cumulative volume distribution Q (particle size D 0.0679 μm, 300 s US): 0%
Cumulative volume distribution Q (particle size D 0.0679 μm, without US): 0%
Cumulative volume distribution Q (particle size D 0.0771 μm, 300 s US): 0%
Cumulative volume distribution Q (particle size D 0.0771 μm, without US): 0%
Cumulative volume distribution Q (particle size D 0.0876 μm, 300 s US): 0%
Cumulative volume distribution Q (particle size D 0.0876 μm, without US): 0%
Cumulative volume distribution Q (particle size D 0.0995 μm, 300 s US): 0%
Cumulative volume distribution Q (particle size D 0.0995 μm, without US): 0%
Cumulative volume distribution Q (particle size D 0.113 μm, 300 s US): 0%
Cumulative volume distribution Q (particle size D 0.113 μm, without US): 0%
Cumulative volume distribution Q (particle size D 0.128 μm, 300 s US): 0%
Cumulative volume distribution Q (particle size D 0.128 μm, without US): 0%
Cumulative volume distribution Q (particle size D 0.146 μm, 300 s US): 0%
Cumulative volume distribution Q (particle size D 0.146 μm, without US): 0%
Cumulative volume distribution Q (particle size D 0.166 μm, 300 s US): 0%
Cumulative volume distribution Q (particle size D 0.166 μm, without US): 0%
Cumulative volume distribution Q (particle size D 0.188 μm, 300 s US): 0%
Cumulative volume distribution Q (particle size D 0.188 μm, without US): 0%
Cumulative volume distribution Q (particle size D 0.214 μm, 300 s US): 0%
Cumulative volume distribution Q (particle size D 0.214 μm, without US): 0%
Cumulative volume distribution Q (particle size D 0.243 μm, 300 s US): 0%
Cumulative volume distribution Q (particle size D 0.243 μm, without US): 0%
Cumulative volume distribution Q (particle size D 0.276 μm, 300 s US): 0%
Cumulative volume distribution Q (particle size D 0.276 μm, without US): 0%
Cumulative volume distribution Q (particle size D 0.314 μm, 300 s US): 0%
Cumulative volume distribution Q (particle size D 0.314 μm, without US): 0%
Cumulative volume distribution Q (particle size D 0.357 μm, 300 s US, listed as Porbe2): 0%
Cumulative volume distribution Q (particle size D 0.357 μm, without US): 0%
Cumulative volume distribution Q (particle size D 0.405 μm, 300 s US, listed as Porbe2): 0%
Cumulative volume distribution Q (particle size D 0.405 μm, without US): 0%
Cumulative volume distribution Q (particle size D 0.46 μm, 300 s US, listed as Porbe2): 0%
Cumulative volume distribution Q (particle size D 0.46 μm, without US): 0%
Cumulative volume distribution Q (particle size D 0.523 μm, 300 s US, listed as Porbe2): 0%
Cumulative volume distribution Q (particle size D 0.523 μm, without US): 0%
Cumulative volume distribution Q (particle size D 0.594 μm, 300 s US, listed as Porbe2): 0.08%
Cumulative volume distribution Q (particle size D 0.594 μm, without US): 0%
Cumulative volume distribution Q (particle size D 0.675 μm, 300 s US, listed as Porbe2): 0.2%
Cumulative volume distribution Q (particle size D 0.675 μm, without US): 0%
Cumulative volume distribution Q (particle size D 0.767 μm, 300 s US, listed as Porbe2): 0.33%
Cumulative volume distribution Q (particle size D 0.767 μm, without US): 0%
Cumulative volume distribution Q (particle size D 0.872 μm, 300 s US, listed as Porbe2): 0.5%
Cumulative volume distribution Q (particle size D 0.872 μm, without US): 0%
Cumulative volume distribution Q (particle size D 0.991 μm, 300 s US, listed as Porbe2): 0.67%
Cumulative volume distribution Q (particle size D 0.991 μm, without US): 0%
Cumulative volume distribution Q (particle size D 1.13 μm, 300 s US, listed as Porbe2): 0.86%
Cumulative volume distribution Q (particle size D 1.13 μm, without US): 0%
Cumulative volume distribution Q (particle size D 1.28 μm, 300 s US, listed as Porbe2): 1.04%
Cumulative volume distribution Q (particle size D 1.28 μm, without US): 0%
Cumulative volume distribution Q (particle size D 1.45 μm, 300 s US, listed as Porbe2): 1.21%
Cumulative volume distribution Q (particle size D 1.45 μm, without US): 0%
Cumulative volume distribution Q (particle size D 1.65 μm, 300 s US, listed as Porbe2): 1.37%
Cumulative volume distribution Q (particle size D 1.65 μm, without US, listed as Probe 2): 0%
Cumulative volume distribution Q (particle size D 1.88 μm, 300 s US, listed as Porbe2): 1.52%
Cumulative volume distribution Q (particle size D 1.88 μm, without US, listed as Probe 2): 0%
Cumulative volume distribution Q (particle size D 2.13 μm, 300 s US, listed as Porbe2): 1.67%
Cumulative volume distribution Q (particle size D 2.13 μm, without US, listed as Probe 2): 0%
Cumulative volume distribution Q (particle size D 2.42 μm, 300 s US, listed as Porbe2): 1.83%
Cumulative volume distribution Q (particle size D 2.42 μm, without US, listed as Probe 2): 0%
Cumulative volume distribution Q (particle size D 2.75 μm, 300 s US, listed as Porbe2): 2.02%
Cumulative volume distribution Q (particle size D 2.75 μm, without US, listed as Probe 2): 0%
Cumulative volume distribution Q (particle size D 3.12 μm, 300 s US, listed as Porbe2): 2.24%
Cumulative volume distribution Q (particle size D 3.12 μm, without US, listed as Probe 2): 0%
Cumulative volume distribution Q (particle size D 3.55 μm, 300 s US, listed as Porbe2): 2.49%
Cumulative volume distribution Q (particle size D 3.55 μm, without US, listed as Probe 2): 0%
Cumulative volume distribution Q (particle size D 4.03 μm, 300 s US, listed as Porbe2): 2.8%
Cumulative volume distribution Q (particle size D 4.03 μm, without US, listed as Probe 2): 0%
Cumulative volume distribution Q (particle size D 4.58 μm, 300 s US, listed as Porbe2): 3.16%
Cumulative volume distribution Q (particle size D 4.58 μm, without US, listed as Probe 2): 0%
Cumulative volume distribution Q (particle size D 5.21 μm, 300 s US, listed as Porbe2): 3.57%
Cumulative volume distribution Q (particle size D 5.21 μm, without US, listed as Probe 2): 0%
Structure (SMILES): C[C@@H]1OC(=O)NN=C1c1ccc(-c2ccc(F)cc2)c(C(F)(F)F)c1 [polymorph C, (6S)-5-[4′-Fluoro-2-(trifluoromethyl)biphenyl-4-yl]-6-methyl-3,6-dihydro-2H-1,3,4-oxadiazin-2-one]
